In publication PMC10514085:
Results are given in words; binding and its absence hold for the method and conditions named. Binding seen in cells or lysates may run through a third protein. Here binding means that the protein was enriched with, or labelled near, the bait; the list need not be complete.

Amino acid sequences for entries named in this document (tags omitted). A change or cut given only in a name is not applied to a line headed by its entry.
UniProt P11308: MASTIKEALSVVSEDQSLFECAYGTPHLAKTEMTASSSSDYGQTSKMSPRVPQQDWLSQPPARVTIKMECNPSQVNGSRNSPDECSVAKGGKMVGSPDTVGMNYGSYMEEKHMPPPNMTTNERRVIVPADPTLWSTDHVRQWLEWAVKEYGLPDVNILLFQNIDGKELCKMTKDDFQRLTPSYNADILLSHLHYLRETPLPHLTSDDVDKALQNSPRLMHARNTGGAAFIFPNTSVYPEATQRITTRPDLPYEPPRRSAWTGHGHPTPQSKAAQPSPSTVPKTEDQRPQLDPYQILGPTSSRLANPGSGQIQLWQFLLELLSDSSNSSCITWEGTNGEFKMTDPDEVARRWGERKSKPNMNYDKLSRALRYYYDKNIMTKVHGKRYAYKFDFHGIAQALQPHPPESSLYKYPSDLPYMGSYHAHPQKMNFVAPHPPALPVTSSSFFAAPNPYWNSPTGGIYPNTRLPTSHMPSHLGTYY
UniProt Q8TAQ2: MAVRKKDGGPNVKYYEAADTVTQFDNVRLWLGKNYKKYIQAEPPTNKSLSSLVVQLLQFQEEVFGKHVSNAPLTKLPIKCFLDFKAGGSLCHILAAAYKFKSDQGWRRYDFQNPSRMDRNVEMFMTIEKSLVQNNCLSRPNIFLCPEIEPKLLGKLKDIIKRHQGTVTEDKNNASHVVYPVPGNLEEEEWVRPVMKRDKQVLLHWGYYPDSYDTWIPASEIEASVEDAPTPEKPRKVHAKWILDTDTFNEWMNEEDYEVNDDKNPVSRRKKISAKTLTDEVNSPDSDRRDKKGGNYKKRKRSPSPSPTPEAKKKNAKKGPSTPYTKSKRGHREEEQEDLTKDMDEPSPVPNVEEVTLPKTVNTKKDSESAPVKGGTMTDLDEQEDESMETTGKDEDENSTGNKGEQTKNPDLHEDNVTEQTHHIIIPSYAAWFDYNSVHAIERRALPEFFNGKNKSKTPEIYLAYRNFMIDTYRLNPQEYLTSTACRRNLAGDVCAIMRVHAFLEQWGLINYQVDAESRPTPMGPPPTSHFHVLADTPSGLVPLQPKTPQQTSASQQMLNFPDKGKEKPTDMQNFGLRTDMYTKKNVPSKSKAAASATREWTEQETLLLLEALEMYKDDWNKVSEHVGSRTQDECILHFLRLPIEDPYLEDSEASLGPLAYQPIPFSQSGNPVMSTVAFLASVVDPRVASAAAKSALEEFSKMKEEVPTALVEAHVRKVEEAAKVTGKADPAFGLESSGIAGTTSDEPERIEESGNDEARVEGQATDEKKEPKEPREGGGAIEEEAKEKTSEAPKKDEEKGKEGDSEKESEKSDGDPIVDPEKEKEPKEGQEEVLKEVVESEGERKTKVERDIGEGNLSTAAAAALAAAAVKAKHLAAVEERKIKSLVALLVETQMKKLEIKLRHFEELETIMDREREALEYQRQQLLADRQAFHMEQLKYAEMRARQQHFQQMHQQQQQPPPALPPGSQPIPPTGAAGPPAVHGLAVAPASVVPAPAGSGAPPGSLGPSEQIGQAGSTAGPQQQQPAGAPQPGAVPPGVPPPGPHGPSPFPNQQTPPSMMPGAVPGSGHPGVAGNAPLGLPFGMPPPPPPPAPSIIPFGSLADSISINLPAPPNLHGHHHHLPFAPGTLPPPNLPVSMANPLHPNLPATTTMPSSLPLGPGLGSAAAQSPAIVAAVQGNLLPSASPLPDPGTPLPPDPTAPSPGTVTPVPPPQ
UniProt P51532: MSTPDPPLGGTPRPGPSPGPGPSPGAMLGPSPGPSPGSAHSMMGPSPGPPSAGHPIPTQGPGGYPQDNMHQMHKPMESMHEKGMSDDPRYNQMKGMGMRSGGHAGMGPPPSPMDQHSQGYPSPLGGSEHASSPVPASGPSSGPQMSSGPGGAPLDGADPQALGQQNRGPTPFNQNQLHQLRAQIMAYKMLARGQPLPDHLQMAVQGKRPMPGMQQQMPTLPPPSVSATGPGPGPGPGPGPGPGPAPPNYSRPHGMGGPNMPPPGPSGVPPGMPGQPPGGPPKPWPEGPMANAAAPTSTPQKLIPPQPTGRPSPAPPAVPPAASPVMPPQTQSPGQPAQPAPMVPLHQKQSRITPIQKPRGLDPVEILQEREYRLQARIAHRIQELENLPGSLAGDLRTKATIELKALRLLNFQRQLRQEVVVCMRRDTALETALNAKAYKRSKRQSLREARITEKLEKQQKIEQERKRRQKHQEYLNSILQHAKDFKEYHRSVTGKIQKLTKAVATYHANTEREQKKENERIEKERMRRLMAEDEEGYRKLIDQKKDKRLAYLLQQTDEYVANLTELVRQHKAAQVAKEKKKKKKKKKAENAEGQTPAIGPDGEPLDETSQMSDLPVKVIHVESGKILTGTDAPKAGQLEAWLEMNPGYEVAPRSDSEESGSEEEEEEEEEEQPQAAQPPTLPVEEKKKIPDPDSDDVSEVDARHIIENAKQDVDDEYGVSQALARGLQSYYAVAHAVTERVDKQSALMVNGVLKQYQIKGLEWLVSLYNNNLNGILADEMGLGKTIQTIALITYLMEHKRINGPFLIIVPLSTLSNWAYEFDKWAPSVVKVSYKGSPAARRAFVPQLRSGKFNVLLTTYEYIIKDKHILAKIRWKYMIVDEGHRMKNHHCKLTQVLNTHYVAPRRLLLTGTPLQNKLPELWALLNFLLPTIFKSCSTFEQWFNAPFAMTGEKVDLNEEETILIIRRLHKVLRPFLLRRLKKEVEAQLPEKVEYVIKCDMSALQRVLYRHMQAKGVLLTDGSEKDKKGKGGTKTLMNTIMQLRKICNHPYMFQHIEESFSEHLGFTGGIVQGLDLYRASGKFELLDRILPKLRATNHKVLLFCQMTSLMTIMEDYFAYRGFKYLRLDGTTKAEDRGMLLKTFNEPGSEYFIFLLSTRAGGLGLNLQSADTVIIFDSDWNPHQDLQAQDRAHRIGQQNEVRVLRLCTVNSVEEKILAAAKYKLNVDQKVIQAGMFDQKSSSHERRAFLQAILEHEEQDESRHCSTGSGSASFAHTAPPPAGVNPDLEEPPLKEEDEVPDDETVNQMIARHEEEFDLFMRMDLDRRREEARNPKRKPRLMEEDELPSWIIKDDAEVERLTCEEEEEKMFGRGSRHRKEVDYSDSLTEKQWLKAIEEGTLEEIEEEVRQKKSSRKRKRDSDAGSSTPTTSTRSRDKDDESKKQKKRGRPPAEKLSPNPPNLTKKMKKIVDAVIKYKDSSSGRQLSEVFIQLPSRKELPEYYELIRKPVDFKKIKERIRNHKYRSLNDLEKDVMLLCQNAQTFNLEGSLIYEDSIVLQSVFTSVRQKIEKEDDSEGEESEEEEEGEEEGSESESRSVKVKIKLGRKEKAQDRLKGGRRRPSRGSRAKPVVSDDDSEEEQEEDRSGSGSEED
UniProt Q969G3: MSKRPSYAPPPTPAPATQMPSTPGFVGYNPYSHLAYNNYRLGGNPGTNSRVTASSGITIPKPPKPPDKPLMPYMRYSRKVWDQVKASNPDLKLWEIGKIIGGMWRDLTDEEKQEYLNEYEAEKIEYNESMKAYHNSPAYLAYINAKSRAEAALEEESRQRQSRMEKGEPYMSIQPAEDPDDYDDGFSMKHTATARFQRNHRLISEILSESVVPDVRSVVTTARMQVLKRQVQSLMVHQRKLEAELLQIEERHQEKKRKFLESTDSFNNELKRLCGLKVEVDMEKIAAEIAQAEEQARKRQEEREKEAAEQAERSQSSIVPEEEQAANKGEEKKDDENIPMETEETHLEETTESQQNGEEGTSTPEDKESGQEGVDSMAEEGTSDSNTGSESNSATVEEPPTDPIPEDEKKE
UniProt Q12824: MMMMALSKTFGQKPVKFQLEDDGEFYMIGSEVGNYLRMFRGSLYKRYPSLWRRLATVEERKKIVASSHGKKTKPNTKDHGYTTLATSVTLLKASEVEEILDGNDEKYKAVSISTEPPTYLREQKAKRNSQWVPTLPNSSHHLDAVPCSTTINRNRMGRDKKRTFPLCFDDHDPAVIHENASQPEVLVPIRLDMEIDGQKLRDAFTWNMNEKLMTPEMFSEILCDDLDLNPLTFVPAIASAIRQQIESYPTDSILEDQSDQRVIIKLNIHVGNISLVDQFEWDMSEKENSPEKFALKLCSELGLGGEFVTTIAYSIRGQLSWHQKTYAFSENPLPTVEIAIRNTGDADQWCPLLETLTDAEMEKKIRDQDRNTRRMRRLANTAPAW
UniProt Q13227: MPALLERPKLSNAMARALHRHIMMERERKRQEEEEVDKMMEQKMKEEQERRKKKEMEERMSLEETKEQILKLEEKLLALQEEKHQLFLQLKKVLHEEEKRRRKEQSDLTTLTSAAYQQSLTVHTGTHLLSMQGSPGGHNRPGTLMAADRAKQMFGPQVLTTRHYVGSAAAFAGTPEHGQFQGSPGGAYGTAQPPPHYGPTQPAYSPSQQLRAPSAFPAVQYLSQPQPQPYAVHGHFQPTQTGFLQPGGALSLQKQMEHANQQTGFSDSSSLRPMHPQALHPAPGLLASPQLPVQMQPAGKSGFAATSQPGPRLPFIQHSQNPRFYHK
UniProt Q92925: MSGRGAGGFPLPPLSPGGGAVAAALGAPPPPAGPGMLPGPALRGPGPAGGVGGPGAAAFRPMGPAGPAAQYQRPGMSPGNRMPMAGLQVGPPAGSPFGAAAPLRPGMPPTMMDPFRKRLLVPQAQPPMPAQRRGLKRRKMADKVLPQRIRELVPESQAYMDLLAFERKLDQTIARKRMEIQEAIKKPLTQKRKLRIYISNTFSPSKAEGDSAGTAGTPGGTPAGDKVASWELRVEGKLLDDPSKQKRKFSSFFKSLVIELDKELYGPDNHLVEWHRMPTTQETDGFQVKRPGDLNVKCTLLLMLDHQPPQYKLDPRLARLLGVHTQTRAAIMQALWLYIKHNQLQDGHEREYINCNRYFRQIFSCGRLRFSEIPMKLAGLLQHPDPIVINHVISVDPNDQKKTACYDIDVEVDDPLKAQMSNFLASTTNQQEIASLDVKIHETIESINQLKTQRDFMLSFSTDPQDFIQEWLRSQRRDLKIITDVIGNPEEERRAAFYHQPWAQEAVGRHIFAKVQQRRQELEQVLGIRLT
UniProt Q92922: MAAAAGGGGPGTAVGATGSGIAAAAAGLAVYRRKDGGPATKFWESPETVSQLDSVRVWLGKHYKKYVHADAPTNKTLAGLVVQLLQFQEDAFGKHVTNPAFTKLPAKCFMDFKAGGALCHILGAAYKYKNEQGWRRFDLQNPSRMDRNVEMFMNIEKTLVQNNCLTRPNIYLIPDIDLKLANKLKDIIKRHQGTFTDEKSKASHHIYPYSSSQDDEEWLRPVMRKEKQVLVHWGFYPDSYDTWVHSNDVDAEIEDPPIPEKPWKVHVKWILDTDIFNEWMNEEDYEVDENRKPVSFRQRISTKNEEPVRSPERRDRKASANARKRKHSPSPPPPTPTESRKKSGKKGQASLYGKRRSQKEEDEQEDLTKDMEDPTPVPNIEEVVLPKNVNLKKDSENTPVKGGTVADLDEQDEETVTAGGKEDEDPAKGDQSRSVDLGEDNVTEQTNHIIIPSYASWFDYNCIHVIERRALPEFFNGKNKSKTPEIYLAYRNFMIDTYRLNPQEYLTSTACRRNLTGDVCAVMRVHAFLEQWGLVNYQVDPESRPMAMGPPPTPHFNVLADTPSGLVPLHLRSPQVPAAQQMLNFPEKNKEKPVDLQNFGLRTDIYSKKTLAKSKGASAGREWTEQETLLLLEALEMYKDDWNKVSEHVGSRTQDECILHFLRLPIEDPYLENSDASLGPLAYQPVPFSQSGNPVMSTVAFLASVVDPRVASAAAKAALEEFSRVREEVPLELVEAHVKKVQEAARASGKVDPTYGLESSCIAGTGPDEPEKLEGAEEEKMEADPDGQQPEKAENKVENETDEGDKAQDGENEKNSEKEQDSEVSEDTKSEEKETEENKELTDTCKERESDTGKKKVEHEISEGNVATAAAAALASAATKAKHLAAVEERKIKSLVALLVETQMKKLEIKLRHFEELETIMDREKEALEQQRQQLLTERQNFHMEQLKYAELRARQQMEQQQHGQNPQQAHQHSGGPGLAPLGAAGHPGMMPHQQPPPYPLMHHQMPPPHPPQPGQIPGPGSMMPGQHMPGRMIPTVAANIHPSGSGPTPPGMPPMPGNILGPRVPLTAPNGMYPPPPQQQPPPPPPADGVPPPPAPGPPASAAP
UniProt O96019: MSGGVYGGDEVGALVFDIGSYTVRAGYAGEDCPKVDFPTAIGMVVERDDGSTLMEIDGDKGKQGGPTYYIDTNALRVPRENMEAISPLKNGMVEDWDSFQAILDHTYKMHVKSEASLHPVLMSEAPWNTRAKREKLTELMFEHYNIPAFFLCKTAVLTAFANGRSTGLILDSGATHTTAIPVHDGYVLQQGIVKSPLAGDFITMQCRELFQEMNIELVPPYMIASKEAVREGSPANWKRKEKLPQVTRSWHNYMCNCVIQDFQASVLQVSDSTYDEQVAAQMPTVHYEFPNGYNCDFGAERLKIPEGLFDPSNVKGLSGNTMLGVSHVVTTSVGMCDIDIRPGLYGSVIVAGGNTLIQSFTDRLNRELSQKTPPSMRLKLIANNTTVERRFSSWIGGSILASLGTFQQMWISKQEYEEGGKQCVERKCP

The substances below were run against FLAG-BirA*-ERG 1-479 WT (human) (UniProt P11308) (assay: proximity labelling; BioID: FLAG-BirA*-ERG bait induced with doxycycline in stable HEK293 GnT-/- cells, 50 uM biotin for 24 h; streptavidin-Sepharose capture from modified RIPA lysate, LC-MS/MS; SAINT score >0.8, FDR <0.05).

binding, binds:
SMARCC2 (from UniProt Q8TAQ2 1-1214), NCoR1 (from UniProt O75376 1-2440), SMARCD1 (from UniProt Q96GM5 1-515), SMARCA4 (from UniProt P51532 1-1647), SMARCE1 (from UniProt Q969G3 1-411), SMARCB1 (from UniProt Q12824 1-385), GPS2 (from UniProt Q13227 1-327), SMARCD2 (from UniProt Q92925 1-531), SMARCC1 (from UniProt Q92922 1-1105), ACTL6A (from UniProt O96019 1-429)
